Reference: PubChem BioAssay AID1259308 (NCATS, 2017)

Screen: 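Candidate targets for better recombinant protein yield in mammalian cells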 (primary screen)
Cells: human HEK293 embryonic kidney cells stably expressing firefly luciferase (HEK-CMV-Luc2-Hygro)
Reagent: single siRNA against human genes, 0.8 pmol siRNA per well
Duration: 72 h
Detection: 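Luciferase light (ONE-Glo) measured on one replicate plate set and viability (CellTiter-Glo) on the other, scaled to a negative control siRNA, with robust z-scores and luciferase per cell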
Scale: total luciferase, z-score: higher = more reporter protein produced
Call rule: 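An siRNA counts as active if its total luciferase robust z-score exceeds 3; genes with two or more such siRNAs out of three were retested with fresh siRNAs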
Meaning of the calls: active = raised luciferase; inactive = no rise
In all, the deposit lists about 59,000 reagents; shown is a random part of them. Over the whole deposit, about 1,510 (2.6%) were called active. 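Calls use total luciferase alone and ignore viability, so some active siRNAs may act by altering cell number.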 Entries without a mark were called inactive. The numbers tell different reagents against one gene apart. Further read-outs or replicates are left out here. Reagent sequences are not shown.

PAFAH1B2 (GeneID 5049) #1 showed total luciferase, z-score -0.981.
PAFAH1B2 (GeneID 5049) #2 showed total luciferase, z-score -0.208.
After knock-down of PAFAH1B2 (GeneID 5049) #3, the record shows total luciferase, z-score -0.289.
Silencing of OVOS2P (GeneID 144203) #1 resulted in: total luciferase, z-score 1.41.
OVOS2P (GeneID 144203) #2 scored total luciferase, z-score 0.433.
For OVOS2P (GeneID 144203) #3 the deposit lists total luciferase, z-score -0.00117.
AAAS (GeneID 8086) #1 showed total luciferase, z-score 1.21.
AAAS (GeneID 8086) #2 showed total luciferase, z-score -0.12.
For AAAS (GeneID 8086) #3, the entry reads total luciferase, z-score -0.242.
For RANBP1 (GeneID 5902) #1, the entry reads total luciferase, z-score -0.298.
After knock-down of RANBP1 (GeneID 5902) #2 the results were total luciferase, z-score -0.719.
RANBP1 (GeneID 5902) #3 showed total luciferase, z-score 1.83.
For PFKFB1 (GeneID 5207) #1, the entry reads total luciferase, z-score -0.161.
After knock-down of PFKFB1 (GeneID 5207) #2, the screen gave total luciferase, z-score -1.31.
Silencing of PFKFB1 (GeneID 5207) #3 came out at: total luciferase, z-score -2.05.
After knock-down of NRP2 (GeneID 8828) #1 the results were total luciferase, z-score -1.04.
For NRP2 (GeneID 8828) #2, the values are total luciferase, z-score 2.6.
Against NRP2 (GeneID 8828) #3, the entry reads total luciferase, z-score 0.814.
Knock-down of ANGPT4 (GeneID 51378) #1 gave: total luciferase, z-score 0.39.
Against ANGPT4 (GeneID 51378) #2 the deposit lists total luciferase, z-score 0.156.
Depletion of ANGPT4 (GeneID 51378) #3 resulted in: total luciferase, z-score -0.437.
Depletion of LRRC74BNL (GeneID 113691) #1 gave: total luciferase, z-score -0.597.
With knock-down of LRRC74BNL (GeneID 113691) #2, the screen gave total luciferase, z-score -0.438.
Against LRRC74BNL (GeneID 113691) #3 the deposit lists total luciferase, z-score 0.801.
For CEP57 (GeneID 9702) #1, the values are total luciferase, z-score -0.187.
Depletion of CEP57 (GeneID 9702) #2 gave: total luciferase, z-score 0.706.
CEP57 (GeneID 9702) #3 scored total luciferase, z-score -1.41.
After knock-down of SLC26A2 (GeneID 1836) #1, the record shows total luciferase, z-score 0.153.
For SLC26A2 (GeneID 1836) #2, the entry reads total luciferase, z-score -0.565.
After knock-down of SLC26A2 (GeneID 1836) #3, the screen gave total luciferase, z-score -0.523.
Knock-down of LAMP2 (GeneID 3920) #1 gave: total luciferase, z-score -0.656.
Silencing of LAMP2 (GeneID 3920) #2 gave: total luciferase, z-score 0.269.
For LAMP2 (GeneID 3920) #3, the values are total luciferase, z-score 0.875.

2 entries from above in another layout.
target | reagent no. | total luciferase, z-score
PAFAH1B2 (GeneID 5049) | 2 | -0.208
PAFAH1B2 (GeneID 5049) | 3 | -0.289
